Taken from: PubChem BioAssay AID1224826 (NIAID, 2016)
Purpose: 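Genes that change LPS-induced Tnf promoter activity in mouse macrophages when knocked down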 (primary screen). Cell system: RAW264.7 G9 macrophages from mouse bearing reporters for p65 (GFP) and the Tnf promoter (mCherry). Reagents: siRNA pool against mouse genes, 100 nM. Time to read-out: 16 h of LPS stimulation, after 2 days of siRNA transfection. Conditions: bacterial lipopolysaccharide (Salmonella minnesota R595), 10 ng/ml. Detection: 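Imaged Tnf reporter mCherry in nuclei, minus background, normalised per plate to the median and expressed as robust z-scores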. Reading the numbers: Tnf reporter robust z-score: higher = stronger Tnf promoter reporter signal after LPS; Tnf reporter intensity: higher = stronger Tnf promoter reporter signal. Hit rule: 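Called active when robust z-score is at most -1.3, matching the median of the Tlr4 knock-down control, or over 3; control wells and wells with under 50 cells never active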. Meaning of the calls: active = Tnf reporter clearly lowered or raised; inactive = no clear change in Tnf reporter.
This is an unselected part of about 17,000 deposited reagents. In the full data, about 1,110 (6.6%) were called active. 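Active means lowered or raised reporter signal; replicate intensities are raw and not normalised per plate.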 Some reagents were tested in more than one well and are listed for each. No sequences are given here.

| Tnf reporter robust z-score | fewer than 50 cells in well | Tnf reporter intensity, replicate 1 | Tnf reporter intensity, replicate 2 | call | gene | PubChem SID |
| --- | --- | --- | --- | --- | --- | --- |
| – | fewer than 50 cells per well; well left out of calls | 266 | 40.5 | inactive | Zcrb1 (zinc finger CCHC-type and RNA binding motif 1) | SID315472892 |
| -0.25 | enough cells in well | 71.5 | 107 | inactive | Or6z7 (olfactory receptor family 6 subfamily Z member 7) | SID315468318 |
| -1.38 | enough cells in well | 65.3 | 73.5 | active | Prl7d1 (prolactin family 7, subfamily d, member 1) | SID315468587 |
| -0.58 | enough cells in well | 138 | 147 | inactive | Prkaa2 (protein kinase, AMP-activated, alpha 2 catalytic subunit) | SID315476684 |
| -0.08 | enough cells in well | 188 | 139 | inactive | Hsf3 (heat shock transcription factor 3) | SID315479819 |
| -1 | enough cells in well | 210 | 119 | inactive | Gdi1 (GDP dissociation inhibitor 1) | SID315466874 |
| -0.55 | enough cells in well | 186 | 223 | inactive | Grm1 (glutamate receptor, metabotropic 1) | SID315467039 |
| -1.11 | enough cells in well | 103 | 90.9 | inactive | Slc35d2 | SID315474067 |
| 1.56 | enough cells in well | 341 | 207 | inactive | Pkn1 (protein kinase N1) | SID315481396 |
| -0.23 | enough cells in well | 99.2 | 157 | inactive | C130023O10Rik (RIKEN cDNA C130023O10 gene) | SID315481264 |
| 0.76 | enough cells in well | 248 | 205 | inactive | Crbn (cereblon) | SID315471909 |
| 0.77 | enough cells in well | 132 | 220 | inactive | Cphx1 (cytoplasmic polyadenylated homeobox 1) | SID315476497 |
| 2.6 | enough cells in well | 238 | 155 | inactive | Vmn1r58 (vomeronasal 1 receptor 58) | SID315475779 |
| -0.7 | enough cells in well | 113 | 139 | inactive | Or10ag57 (olfactory receptor family 10 subfamily AG member 57) | SID315480639 |
| -0.93 | enough cells in well | 162 | 98.9 | inactive | Zfp704 (zinc finger protein 704) | SID315477221 |
| 0.06 | enough cells in well | 258 | 136 | inactive | Gjc3 (gap junction protein, gamma 3) | SID315477101 |
| 2.56 | enough cells in well | 186 | 120 | inactive | Slc25a25 | SID315478597 |
| 1.66 | enough cells in well | 353 | 250 | inactive | Jag2 (jagged 2) | SID315467543 |
| 0.27 | enough cells in well | 293 | 204 | inactive | Cideb | SID315465971 |
| 1.07 | enough cells in well | 236 | 220 | inactive | Or4c115 (olfactory receptor family 4 subfamily C member 115) | SID315480528 |

Next part, starting with the last 8 of the part before.
| Tnf reporter robust z-score | fewer than 50 cells in well | Tnf reporter intensity, replicate 1 | Tnf reporter intensity, replicate 2 | call | gene | PubChem SID |
| --- | --- | --- | --- | --- | --- | --- |
| 2.6 | enough cells in well | 238 | 155 | inactive | Vmn1r58 (vomeronasal 1 receptor 58) | SID315475779 |
| -0.7 | enough cells in well | 113 | 139 | inactive | Or10ag57 (olfactory receptor family 10 subfamily AG member 57) | SID315480639 |
| -0.93 | enough cells in well | 162 | 98.9 | inactive | Zfp704 (zinc finger protein 704) | SID315477221 |
| 0.06 | enough cells in well | 258 | 136 | inactive | Gjc3 (gap junction protein, gamma 3) | SID315477101 |
| 2.56 | enough cells in well | 186 | 120 | inactive | Slc25a25 | SID315478597 |
| 1.66 | enough cells in well | 353 | 250 | inactive | Jag2 (jagged 2) | SID315467543 |
| 0.27 | enough cells in well | 293 | 204 | inactive | Cideb | SID315465971 |
| 1.07 | enough cells in well | 236 | 220 | inactive | Or4c115 (olfactory receptor family 4 subfamily C member 115) | SID315480528 |
| -0.71 | enough cells in well | 140 | 136 | inactive | Fbxo36 (F-box protein 36) | SID315472249 |
| -0.27 | enough cells in well | 239 | 149 | inactive | Tenm3 (teneurin transmembrane protein 3) | SID315470260 |
| -1.61 | enough cells in well | 65.4 | 51.5 | active | Rnf126 (ring finger protein 126) | SID315474006 |
| 1 | enough cells in well | 318 | 203 | inactive | Kpna2 (karyopherin subunit alpha 2) | SID315467675 |
| -1.02 | enough cells in well | 145 | 40.4 | inactive | Lypd4 (Ly6/Plaur domain containing 4) | SID315479030 |
| -0.27 | enough cells in well | 226 | 198 | inactive | Mfng (MFNG O-fucosylpeptide 3-beta-N-acetylglucosaminyltransferase) | SID315467914 |
| -0.4 | enough cells in well | 216 | 96.3 | inactive | Agtr2 (angiotensin II receptor, type 2) | SID315465354 |
| 0.36 | enough cells in well | 244 | 327 | inactive | Agtr2 (angiotensin II receptor, type 2) | SID315465354 |
| -0.92 | enough cells in well | 71.5 | 72.4 | inactive | Serpinb9b (serine (or cysteine) peptidase inhibitor, clade B, member 9b) | SID315469408 |
| -0.33 | enough cells in well | 185 | 90.3 | inactive | Or2b28 (olfactory receptor family 2 subfamily B member 28) | SID315480198 |
| -0.09 | enough cells in well | 222 | 224 | inactive | Zfp37 (zinc finger protein 37) | SID315470114 |
| 2.09 | enough cells in well | 398 | 128 | inactive | Trub1 (TruB pseudouridine (psi) synthase family member 1) | SID315474466 |
| -0.36 | enough cells in well | 297 | 89 | inactive | H3f3a (H3.3 histone A) | SID315467135 |
| -0.1 | enough cells in well | 154 | 128 | inactive | Megf6 (multiple EGF-like-domains 6) | SID315478848 |
| -0.4 | enough cells in well | 232 | 175 | inactive | Myt1l (myelin transcription factor 1-like) | SID315468089 |
| -0.34 | enough cells in well | 210 | 88.1 | inactive | Myo7b (myosin VIIB) | SID315468080 |
| -1.67 | enough cells in well | 88.8 | 64.8 | active | D930046H04Rik (RIKEN cDNA D930046H04 gene) | SID315481107 |
| -0.88 | enough cells in well | 118 | 80 | inactive | Oog2 (oogenesin 2) | SID315481794 |
| 1.01 | enough cells in well | 345 | 263 | inactive | Zfp146 (zinc finger protein 146) | SID315470431 |
| 0.65 | enough cells in well | 217 | 147 | inactive | Dph1 (diphthamide biosynthesis 1) | SID315477072 |
| -0.69 | enough cells in well | 191 | 54.1 | inactive | Ccdc71 (coiled-coil domain containing 71) | SID315474551 |
| 1.72 | enough cells in well | 418 | 239 | inactive | Hes2 (hes family bHLH transcription factor 2) | SID315467181 |
| 0.65 | enough cells in well | 273 | 107 | inactive | Smim14 (small integral membrane protein 14) | SID315473565 |
| 0.96 | enough cells in well | 286 | 324 | inactive | Eno1 (enolase 1, alpha non-neuron) | SID315466506 |
| 1.29 | enough cells in well | 281 | 236 | inactive | Cyp24a1 (cytochrome P450, family 24, subfamily a, polypeptide 1) | SID315466220 |
| -0.54 | enough cells in well | 84.4 | 128 | inactive | Lzts3 (leucine zipper, putative tumor suppressor family member 3) | SID315479581 |
| 1.45 | enough cells in well | 391 | 265 | inactive | Prpf4 (pre-mRNA processing factor 4) | SID315473965 |
| -0.31 | enough cells in well | 197 | 111 | inactive | Oas1f (2'-5' oligoadenylate synthetase 1F) | SID315479668 |
| 0.3 | enough cells in well | 123 | 93.9 | inactive | Bloc1s3 (biogenesis of lysosomal organelles complex-1, subunit 3) | SID315479025 |
| -0.6 | enough cells in well | 247 | 103 | inactive | Onecut1 (one cut domain, family member 1) | SID315467241 |
| 0.11 | enough cells in well | 185 | 184 | inactive | Phkg1 (phosphorylase kinase gamma 1) | SID315468497 |
| – | fewer than 50 cells per well; well left out of calls | 185 | 112 | inactive | Mrnip (MRN complex interacting protein) | SID315473398 |
| – | fewer than 50 cells per well; well left out of calls | 86.7 | 117 | inactive | Klhl26 (kelch-like 26) | SID315479159 |
| -0.47 | enough cells in well | 117 | 97.7 | inactive | Rpl35 (ribosomal protein L35) | SID315472472 |
| -0.82 | enough cells in well | 172 | 110 | inactive | L1cam (L1 cell adhesion molecule) | SID315467711 |
| -1.52 | enough cells in well | 98.7 | 73.5 | active | Ust (uronyl-2-sulfotransferase) | SID315481671 |
| -0.82 | enough cells in well | 171 | 159 | inactive | Tuba1a (tubulin, alpha 1A) | SID315469870 |
| -0.34 | enough cells in well | 189 | 263 | inactive | Esyt1 (extended synaptotagmin-like protein 1) | SID315470244 |
